Reference: paper PMC8079276
These are yes or no findings as the source states them, for the method shown. Binding seen in cells or lysates may run through a third protein. A yes stands for co-enrichment or nearness to the bait. Other partners may have been found. Sequences can lack the tags named with a protein.

T1: UDP-N-acetylglucosamine-peptide N-acetylglucosaminyltransferase (mouse (endogenous in MEFs)) (UniProt Q8CGY8)
T1 sequence: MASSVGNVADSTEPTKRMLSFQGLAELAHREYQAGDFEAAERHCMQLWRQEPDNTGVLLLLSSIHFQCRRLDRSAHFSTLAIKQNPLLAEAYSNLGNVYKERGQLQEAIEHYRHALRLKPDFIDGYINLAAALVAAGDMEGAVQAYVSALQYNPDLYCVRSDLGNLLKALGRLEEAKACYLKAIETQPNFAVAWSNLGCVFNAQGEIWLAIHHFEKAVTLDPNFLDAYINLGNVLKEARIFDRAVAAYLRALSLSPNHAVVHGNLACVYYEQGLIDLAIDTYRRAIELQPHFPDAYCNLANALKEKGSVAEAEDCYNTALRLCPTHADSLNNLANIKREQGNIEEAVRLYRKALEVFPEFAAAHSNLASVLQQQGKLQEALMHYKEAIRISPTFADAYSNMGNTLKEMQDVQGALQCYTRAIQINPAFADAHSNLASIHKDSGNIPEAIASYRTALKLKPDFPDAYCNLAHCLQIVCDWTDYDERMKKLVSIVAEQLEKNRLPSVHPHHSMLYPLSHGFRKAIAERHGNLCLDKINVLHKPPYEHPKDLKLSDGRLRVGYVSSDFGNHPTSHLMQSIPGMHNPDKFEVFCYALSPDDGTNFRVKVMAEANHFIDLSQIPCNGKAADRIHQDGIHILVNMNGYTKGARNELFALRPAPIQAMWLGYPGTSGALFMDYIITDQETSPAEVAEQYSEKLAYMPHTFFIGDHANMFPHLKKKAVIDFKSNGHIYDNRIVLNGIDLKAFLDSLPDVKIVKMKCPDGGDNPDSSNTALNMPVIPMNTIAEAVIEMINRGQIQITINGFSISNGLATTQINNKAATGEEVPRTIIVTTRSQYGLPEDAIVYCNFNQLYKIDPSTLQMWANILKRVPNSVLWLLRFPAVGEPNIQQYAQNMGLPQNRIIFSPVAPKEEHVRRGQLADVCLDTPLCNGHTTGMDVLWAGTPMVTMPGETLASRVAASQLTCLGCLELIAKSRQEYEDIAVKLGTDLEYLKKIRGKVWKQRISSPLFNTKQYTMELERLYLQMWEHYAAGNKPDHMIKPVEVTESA


target: T1, UDP-N-acetylglucosamine-peptide N-acetylglucosaminyltransferase (mouse (endogenous in MEFs)); test: affinity purification with mass spectrometry; endogenous OGT immunoprecipitated (antibody AL24, protein G magnetic beads, TCL buffer: 50 mM Tris HCl, 150 mM NaCl, pH 7.5, 1% NP-40, 2 mM EDTA) from a 1:1:1 mix of SILAC-labelled lysates of WT, H2O2-treated (2.5 mM, 1.5 h) and OGT-null MEFs, precleared with rabbit IgG; in-gel trypsin digestion, LC-MS/MS; interactor if log2 WT or H2O2/null >=1 in 2 or more replicates

| Binder | binding |
| --- | --- |
| G2 phase– and S phase–expressed protein 1 (protein, UniProt Q8R080 1-741) MDAGSKKEDFLLLEDEKFDFDLSLSSSSTNEDDEVFFGPVGHKERCIAASLDLNRRVPGQPLAPGSGSPCTLSPLTGEKFVEVYKEAHLLALQIESHSRREVAQAATPQNPVNQGKETFVQDSQLKVSLFEKEQKRDRSPMSLKRETFCLPSSRVQPPMGEPQLLASPGLLSSPVSAGPAQTQSNQGLPCSSQPLPRESSTSQPPSQAGPQKRITSKLQPPRALPVRGRNLHLATEKLKKEVPASIQRTKLVNEKGSQSDVLQDKPSTAPDAASREGHPGKRSLPIPGKLGLKKTLLKPPGYTGNLTRKSSTSGSASSLESGVYRSSVAGKAKSSEQRSSIPASGSQRRTSTSKSGRIGPAASRQALPAAPARVFGRQANKADAAQTVAEQPKVPTLSPLTQQPQTPEQRGPRLDPDTETPQLNKTVSIKRRDSYLSCKTEAVSTTTNPFKVPQFSVGESPGGVTPKFSRTHRLQSWTPASRVVSSTPVRRSSGTTPQGLPGSMRTPLSTRRMSVLPTPASRRLSSLPLMAPQSMPRALVSPLCVPARRLSSEPRRRSTVRAELTQESSGSGSGGQAQGLSSDESSSPPSSVPQALNFSPEKSASPPPQGSSTGAAQGEAEPPEDTLPSEVHGGGCSHTPSEGLLLDLKLDQLTITPEAGGRDLADCPLIDFSNTPESNTALGPSSWPLIDLIMNTPDMGRNDVGKPAKAELGQLIDLGSPLIQLSPEADKENVDSPLLKF | binds |
| short-chain–specific acyl-CoA dehydrogenase (protein, UniProt Q07417 25-412) LHTVYQSVELPETHQMLRQTCRDFAEKELVPIAAQLDREHLFPTAQVKKMGELGLLAMDVPEELSGAGLDYLAYSIALEEISRACASTGVIMSVNNSLYLGPILKFGSAQQKQQWITPFTNGDKIGCFALSEPGNGSDAGAASTTAREEGDSWVLNGTKAWITNSWEASATVVFASTDRSRQNKGISAFLVPMPTPGLTLGKKEDKLGIRASSTANLIFEDCRIPKENLLGEPGMGFKIAMQTLDMGRIGIASQALGIAQASLDCAVKYAENRNAFGAPLTKLQNIQFKLADMALALESARLLTWRAAMLKDNKKPFTKESAMAKLAASEAATAISHQAIQILGGMGYVTEMPAERYYRDARITEIYEGTSEIQRLVIAGHLLRSYRS | binds |
| Trafficking kinesin-binding protein 1 isoform X1 (protein, UniProt Q6PD31 1-939) MALAIQLRQPSRAQPLPGLSHTLAGTDSCDVCNSTNLPEVEIISLLEEQLPHYKLRADTIYGYDHDDWLHTPLISPDANIDLTTEQIEETLKYFLLCAERVGQMTKTYNDIDAVTRLLEEKERDLELAARIGQSLLKKNKTLTERNELLEEQVEHIREEVSQLRHELSMKDELLQFYTSAAEESEPESVCSTPLKRNESSSSVQNYFHLDSLQKKLKDLEEENVVLRSEACQLKTETITYEEKEQQLVNDCVKELRDANVQIASISEELAKKTEDAARQQEEITHLLSQIVDLQKKAKSCAVENEELVQHLGAAKDAQRQLTAELRELEDKYAECMEMLHEAQEELKNLRNKTMPTSRRYHSLGLFPMDSLAAEIEGTMRKELQLEELESPDITHQKRVFETVRNVNQVVKQRSLTPSPMNIPGSNQSSAMNSLLSSCVSTPRSSFYGSDVSNVVLDNKTNSILLETEAADLGNEDHNKKPGTPGTPGSHDLETALRRLSLRRENYLSERRFFEEEQERKLRELAEKGELHSGSLTPTESIMSLGTHSRFSEFTGFSGMSFSSRSYLPEKLQIVKPLEGSATLHHWQQLAQPHLGGILDPRPGVVTKGFRTLDVDLDEVYCLNDFEEDDTGDHISLAGLATSTPIQHPETSAHHPGKCMSQTNSTFTFTTCRILHPSDELTRVTPSLNSAPAPACSSTSHLKSTPVATPCTPRRLSLAESFTNVRESTTTMSTSLGLVWLLKERGISAAVYDPQSWDRAGRGSLLHSYTPRMAVIPSTPPNSPMQTPSASPPSFEFKCTSPPYNNFLASKPASSILREVREKRPVRSSESQTDVSVSNLNLVDKVRRFGVARVVNSGRARIPTLTEEQGPLLCGPTGPAQALVPGGLVPEGLPLGCPSGIRRNRSFPTMVGSSVQMRAPVILTSGILMGAKLPKQTSLR | binds |
| KAT8 regulatory NSL complex subunit 1 (protein, UniProt Q80TG1 1-1036) MAAMAPALTDAAAEAHHIRFKLAPPSSTLSPGSAENNGNANILISANGTKRKAIAAEDPSLDFRNNPTKEDLGKLQPLVASYLCSDVTSVPAKESLKLQGVFSKQTVLKSHPLLSQSYELRAELLGRQPVLEFSLENLRTMNTSGQTALPQAPVNGLAKKLTKSSTHSDHDNSSSLNGGKRSLTSSSLQGGEVGGPDSGNLKGGMTNCTLPHRSLDIQHTTLYSNNSTANKSSVNSMDQPALQGSSRLSPSTDSSSNLTNVKLEVKKSPLSSILFSALDSDTRITALLRRQADIEIRARRLQKRLQVVQAKQVERHLQHQLGGFLETTLSKLPNLESLRSRSQLMLTRKAEAALRKAASESATSEGLSNFLKSDSISEELERFTASGIANLRCSEQAFDSDVTDSSSGGESDIEEEELTRADPEQCHVPLKRRSEWRWAADRAAIVSRWNWLQAHVSDLEYRIRQQTDIYKQIRANKGLIVLGEAPFPDHTTDLLSLSSEVKTDHGRDKLIESVSQPSENHGILVSNITESLSTKSCGAPRPVNGVVNSLQPVLADQVPGDSSDAEEQLHKKQRLNLVSSSDGTCVAARTRPVLTCKKRRLVRPSSIVPLSKKVHRNVRSGCDVNPSCALCGSGSVNTMPPEIHYEAPLLERLSQLDSCVHPVLAFPDDVPTSLHFQSMLKSQWQNKPFDKIKPTKKFSLKHRATMPCSLSDPVRKDRHKLVNSFLTTAMLKHHTDMSSPSYLTATHHPPHSPLVRQLSTSSDTSTPTSSGSQVAASTSQPVRRRRGESSFDINNIVIPMSVAATTRVEKLQYKEILTPSWREVDVQSLKGSPDEENEEIEDLSDAAFAALHAKCEEMERARWLWTTSVPPQRRGSRSYRSSDGRTTPQLGSANPSTPQPASPDVSSSHSLSEFSHGQSPRSPISPELHSAPLTPVARDSLRHLASEDTRCSTPELGLDEQSVQPWERRTFPLAYSPQAECEEQLDAQDTAARCTRRTSGSKTGREAEVAPTSPPVVPLKSRHLAATVTAQRPAHR | binds |

The remaining lines, values ahead:

| binding | Binder |
| --- | --- |
| binds | Peptidyl-prolyl cis-trans isomerase FKBP8 isoform X1 (protein, UniProt O35465-2 1-403) MASWAEPSEPAALRLPGAPLLEGFEVLDGVDDAEEEDDLSGLPPLEDMGQPTVEEAEQPGALAREFLAATEPEPAPAPAPEEWLDILGNGLLRMKTLVPGPKGSSRPLKGQVVTVHLQMSLENGTRVQEEPELAFTLGDCDVIQALDLSVPLMDVGETAMVTADSKYCYGPQGSRSPYIPPHAALCLEVTLKTAEDGPDLEMLSGQERVALANRKRECGNAHYQRADFVLAANSYDLAIKAITSNTKVDMTCEEEEELLQLKVKCLNNLAASQLKLDHYRAALRSCSQVLEHQPDNIKALFRKGKVLAQQGEYSEAIPILRAALKLEPSNKTIHAELSKLVKKRAAQRSTETALYRKMLGNPSRLPAKCPGKGAWSIPWKWLFGATAVALGGVALSVVIAARN |
| binds | trafficking kinesin-binding protein 2 (protein, UniProt Q6P9N8 1-913) MSQSQNAIFKSRTGEANLMSSNHRDSESITDVCSNEDLPEVELVNLLEEQLPQYKLRVDSLFLYENQDWAQSSHQQQDAPETLSPVLAEETFRYMILGTDRVEQMTKTYNDIDMVTHLLAERDRDLELAARIGQALLKRNHVLSEQNEALEEQLGQAFDQVNQLQHELSKKDELLRIVSIASEESETDSSCSTPLRFNESFSLSQGLLQLDMLHEKLRELEEENMALRSKACHIKTETFTYEEKEQQLVNDCVKELRETNAQMSRMTEELSGKSDELLRYQEEISSLLSQIVDLQHKLKEHVIEKEELRLHLQASKDAQRQLTMELHELQDRNMECLGMLHESQEEIKELRSKSGPSAHLCFSQSYGVFTGESLAAEIEGTMRKKLSLDEESVSKQKAQQKRVFDTVKVANDTRGRSVTFPVLLPIPGSNRSSVIMTAKPFESGVQPAEDKTLLSPGGSTEVPGNSQPTNPPGSPEDSDLATALHRLSLRRQNYLSEKQFFAEEWERKIQILAEQEEEVSSCDAPTENLASVCTDQSETTDLGSASCLRGFMPEKLQIVKPLEGSQTLHHWQQLAQPNLGTILDPRPGVITKGFTQVPKDVVYHISDLEEDEEEGITFQVQQPLQLEQKPALPTPVTGIFLPPMTSAGGPGTVATSNPGKCLSFTNSTFTFTTCRILHPSDITQVTPSSGFPSLACGSSASSSSNTAVNSPAASYRLSIGESITNRRDSTITFSSTRSLAKLLQERGISAKVYHSPASENPLLQPCPKALATPSTPPNSPAQSPCSSPLPFEPRVHVSENFLASRPAETFLQEMYGLRPSRAPPDVGQLKMNLVDRLKRLGIARVVKTPDPQENGKSREAEMGLQKPDPAVYLNSGGSLLCGLRRNQSLPVMMGSFGAPVCTTSPKMGILKED |
| binds | MICOS complex subunit Mic19 isoform X1 (protein, UniProt Q9CRB9 1-227) MGGTASTRRVTFEADENENITVVKGIRLSENVIDRMKESSPSGSKSQRYSSVYGASVSDEDLKRRVAEELALEQAKKESEHQRRLKQARDLERERAAANEQLTRAVLRERISSEEERMKAKHLARQLEEKDRVMRKQDAFYKEQLARLEERSSEFYKVTTEEYQKAAEEVEAKFKRYEYHPVCADLQTKILQCYRQNTQQTLSCSALASQYMHCVNHAKQSMLEKGG |
